Experiment [1] concerns the target T1, hPIGK-StrepII-GST (human) (UniProt Q92643).
T1 sequence: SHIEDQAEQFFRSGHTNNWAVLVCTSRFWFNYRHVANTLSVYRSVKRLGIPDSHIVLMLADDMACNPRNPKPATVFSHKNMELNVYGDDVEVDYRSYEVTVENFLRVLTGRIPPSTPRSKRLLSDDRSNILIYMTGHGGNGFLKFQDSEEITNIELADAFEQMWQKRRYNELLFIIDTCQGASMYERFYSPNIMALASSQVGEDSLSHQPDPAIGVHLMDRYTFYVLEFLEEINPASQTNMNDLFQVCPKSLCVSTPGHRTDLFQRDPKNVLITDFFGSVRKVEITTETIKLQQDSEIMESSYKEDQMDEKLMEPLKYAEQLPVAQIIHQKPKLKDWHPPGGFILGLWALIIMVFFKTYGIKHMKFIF
In words: affinity purification with mass spectrometry; single-step purification of the GPI-TA complex on StrepTactin Sepharose by tagged PIGK, without reducing reagent, in DDM, DDM-CHS or digitonin; silver staining, bands confirmed by mass spectrometry.

The target of experiment [2] is T2, hPIGK-StrepII (human) (UniProt Q92643).
T2 sequence: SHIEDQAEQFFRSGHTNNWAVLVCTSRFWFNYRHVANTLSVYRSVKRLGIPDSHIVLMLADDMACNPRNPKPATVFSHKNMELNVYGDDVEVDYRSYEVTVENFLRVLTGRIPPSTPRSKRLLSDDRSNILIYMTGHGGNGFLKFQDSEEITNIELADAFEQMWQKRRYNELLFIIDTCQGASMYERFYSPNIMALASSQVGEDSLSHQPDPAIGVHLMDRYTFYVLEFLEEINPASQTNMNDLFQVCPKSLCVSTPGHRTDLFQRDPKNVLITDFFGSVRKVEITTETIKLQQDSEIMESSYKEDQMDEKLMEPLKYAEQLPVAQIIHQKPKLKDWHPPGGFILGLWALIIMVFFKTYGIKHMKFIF
In words: affinity purification with mass spectrometry; membranes of K562K-hPIGK-StrepII cells solubilised in 2% DDM-0.4% CHS, bound to StrepTactin Sepharose in 50 mM Tris pH 7.5, 150 mM NaCl, 0.06% GDN, eluted with 2.5 mM desthiobiotin, 4 °C; silver staining, bands cut and analysed by mass spectrometry.

These are yes or no findings as the source states them, for the method shown. Binding seen in cells or lysates may run through a third protein. A yes stands for co-enrichment or nearness to the bait. Other partners may have been found. For some assays here: Where a sequence is shown, tags or fusion partners need not be part of it.

B1: PIGS (protein, UniProt Q96S52 1-555)
chain: MAAAGAAATHLEVARGKRAALFFAAVAIVLGLPLWWKTTETYRASLPYSQISGLNALQLRLMVPVTVVFTRESVPLDDQEKLPFTVVHEREIPLKYKMKIKCRFQKAYRRALDHEEEALSSGSVQEAEAMLDEPQEQAEGSLTVYVISEHSSLLPQDMMSYIGPKRTAVVRGIMHREAFNIIGRRIVQVAQAMSLTEDVLAAALADHLPEDKWSAEKRRPLKSSLGYEITFSLLNPDPKSHDVYWDIEGAVRRYVQPFLNALGAAGNFSVDSQILYYAMLGVNPRFDSASSSYYLDMHSLPHVINPVESRLGSSAASLYPVLNFLLYVPELAHSPLYIQDKDGAPVATNAFHSPRWGGIMVYNVDSKTYNASVLPVRVEVDMVRVMEVFLAQLRLLFGIAQPQLPPKCLLSGPTSEGLMTWELDRLLWARSVENLATATTTLTSLAQLLGKISNIVIKDDVASEVYKAVAAVQKSAEELASGHLASAFVASQEAVTSSELAFFDPSLLHLLYFPDDQKFAIYIPLFLPMAVPILLSLVKIFLETRKSWRKPEKTD
Regarding B1, the binding result in experiment [1] and in experiment [2] was “binds” throughout.

B2: GPAA1 (protein, UniProt O43292 1-621)
chain: MGLLSDPVRRRALARLVLRLNAPLCVLSYVAGIAWFLALVFPPLTQRTYMSENAMGSTMVEEQFAGGDRARAFARDFAAHRKKSGALPVAWLERTMRSVGLEVYTQSFSRKLPFPDETHERYMVSGTNVYGILRAPRAASTESLVLTVPCGSDSTNSQAVGLLLALAAHFRGQIYWAKDIVFLVTEHDLLGTEAWLEAYHDVNVTGMQSSPLQGRAGAIQAAVALELSSDVVTSLDVAVEGLNGQLPNLDLLNLFQTFCQKGGLLCTLQGKLQPEDWTSLDGPLQGLQTLLLMVLRQASGRPHGSHGLFLRYRVEALTLRGINSFRQYKYDLVAVGKALEGMFRKLNHLLERLHQSFFLYLLPGLSRFVSIGLYMPAVGFLLLVLGLKALELWMQLHEAGMGLEEPGGAPGPSVPLPPSQGVGLASLVAPLLISQAMGLALYVLPVLGQHVATQHFPVAEAEAVVLTLLAIYAAGLALPHNTHRVVSTQAPDRGWMALKLVALIYLALQLGCIALTNFSLGFLLATTMVPTAALAKPHGPRTLYAALLVLTSPAATLLGSLFLWRELQEAPLSLAEGWQLFLAALAQGVLEHHTYGALLFPLLSLGLYPCWLLFWNVLFWK
As to B2, the binding entry in experiment [1] and in experiment [2] was “binds” throughout.

B3: PIGU (protein, UniProt Q9H490 1-435)
chain: MAAPLVLVLVVAVTVRAALFRSSLAEFISERVEVVSPLSSWKRVVEGLSLLDLGVSPYSGAVFHETPLIIYLFHFLIDYAELVFMITDALTAIALYFAIQDFNKVVFKKQKLLLELDQYAPDVAELIRTPMEMRYIPLKVALFYLLNPYTILSCVAKSTCAINNTLIAFFILTTIKGSAFLSAIFLALATYQSLYPLTLFVPGLLYLLQRQYIPVKMKSKAFWIFSWEYAMMYVGSLVVIICLSFFLLSSWDFIPAVYGFILSVPDLTPNIGLFWYFFAEMFEHFSLFFVCVFQINVFFYTIPLAIKLKEHPIFFMFIQIAVIAIFKSYPTVGDVALYMAFFPVWNHLYRFLRNIFVLTCIIIVCSLLFPVLWHLWIYAGSANSNFFYAITLTFNVGQILLISDYFYAFLRREYYLTHGLYLTAKDGTEAMLVLK
B3: the binding entry in experiment [1] and in experiment [2] was “binds” in each case.

B4: PIGT (protein, UniProt Q969N2 22-578)
chain: LAEPPRDSLREELVITPLPSGDVAATFQFRTRWDSELQREGVSHYRLFPKALGQLISKYSLRELHLSFTQGFWRTRYWGPPFLQAPSGAELWVWFQDTVTDVDKSWKELSNVLSGIFCASLNFIDSTNTVTPTASFKPLGLANDTDHYFLRYAVLPREVVCTENLTPWKKLLPCSSKAGLSVLLKADRLFHTSYHSQAVHIRPVCRNARCTSISWELRQTLSVVFDAFITGQGKKDWSLFRMFSRTLTEPCPLASESRVYVDITTYNQDNETLEVHPPPTTTYQDVILGTRKTYAIYDLLDTAMINNSRNLNIQLKWKRPPENEAPPVPFLHAQRYVSGYGLQKGELSTLLYNTHPYRAFPVLLLDTVPWYLRLYVHTLTITSKGKENKPSYIHYQPAQDRLQPHLLEMLIQLPANSVTKVSIQFERALLKWTEYTPDPNHGFYVSPSVLSALVPSMVAAKPVDWEESPLFNSLFPVSDGSNYFVRLYTEPLLVNLPTPDFSMPYNVICLTCTVVAVCYGSFYNLLTRTFHIEEPRTGGLAKRLANLIRRARGVPPL
For the molecule B4, the binding entry in experiment [1] and in experiment [2] was “binds” throughout.

The values above are taken from PMC8465894.
